Our source for the binding values is doi:10.1101/2021.11.24.469949.

No constants are given. Whether binding was seen depends on the method and setting. In cells and extracts the contact can be indirect. A yes stands for co-enrichment or nearness to the bait. Other partners may have been found. Sequences can lack the tags named with a protein.

The target in assay [1] is T1, 3xFLAG tagged REV (Arabidopsis) (UniProt Q9SE43).
T1 sequence: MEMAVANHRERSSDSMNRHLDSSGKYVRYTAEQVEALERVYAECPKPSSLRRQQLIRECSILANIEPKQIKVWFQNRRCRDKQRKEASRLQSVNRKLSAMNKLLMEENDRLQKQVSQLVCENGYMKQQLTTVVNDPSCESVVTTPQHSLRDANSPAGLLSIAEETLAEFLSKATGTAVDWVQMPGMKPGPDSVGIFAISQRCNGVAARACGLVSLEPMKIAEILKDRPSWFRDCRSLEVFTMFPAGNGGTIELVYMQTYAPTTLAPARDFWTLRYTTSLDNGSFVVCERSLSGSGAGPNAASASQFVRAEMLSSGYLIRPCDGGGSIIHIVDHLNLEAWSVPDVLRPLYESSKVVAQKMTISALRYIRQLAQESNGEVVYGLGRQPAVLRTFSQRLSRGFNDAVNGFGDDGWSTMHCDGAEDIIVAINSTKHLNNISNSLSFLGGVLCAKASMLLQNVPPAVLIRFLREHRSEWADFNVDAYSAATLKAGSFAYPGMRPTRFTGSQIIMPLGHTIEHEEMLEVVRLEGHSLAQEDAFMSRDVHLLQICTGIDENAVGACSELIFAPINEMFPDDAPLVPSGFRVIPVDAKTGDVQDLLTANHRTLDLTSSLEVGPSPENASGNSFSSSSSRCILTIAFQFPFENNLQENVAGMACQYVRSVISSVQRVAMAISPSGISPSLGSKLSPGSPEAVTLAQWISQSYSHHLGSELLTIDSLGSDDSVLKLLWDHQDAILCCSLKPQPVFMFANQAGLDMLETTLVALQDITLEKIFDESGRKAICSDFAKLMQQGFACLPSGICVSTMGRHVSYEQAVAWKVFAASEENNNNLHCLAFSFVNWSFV
As to the kind of experiment: affinity purification with mass spectrometry.

The target of assay [2] is T2, 3xFLAG tagged PHB (Arabidopsis) (UniProt O04291).
T2 sequence: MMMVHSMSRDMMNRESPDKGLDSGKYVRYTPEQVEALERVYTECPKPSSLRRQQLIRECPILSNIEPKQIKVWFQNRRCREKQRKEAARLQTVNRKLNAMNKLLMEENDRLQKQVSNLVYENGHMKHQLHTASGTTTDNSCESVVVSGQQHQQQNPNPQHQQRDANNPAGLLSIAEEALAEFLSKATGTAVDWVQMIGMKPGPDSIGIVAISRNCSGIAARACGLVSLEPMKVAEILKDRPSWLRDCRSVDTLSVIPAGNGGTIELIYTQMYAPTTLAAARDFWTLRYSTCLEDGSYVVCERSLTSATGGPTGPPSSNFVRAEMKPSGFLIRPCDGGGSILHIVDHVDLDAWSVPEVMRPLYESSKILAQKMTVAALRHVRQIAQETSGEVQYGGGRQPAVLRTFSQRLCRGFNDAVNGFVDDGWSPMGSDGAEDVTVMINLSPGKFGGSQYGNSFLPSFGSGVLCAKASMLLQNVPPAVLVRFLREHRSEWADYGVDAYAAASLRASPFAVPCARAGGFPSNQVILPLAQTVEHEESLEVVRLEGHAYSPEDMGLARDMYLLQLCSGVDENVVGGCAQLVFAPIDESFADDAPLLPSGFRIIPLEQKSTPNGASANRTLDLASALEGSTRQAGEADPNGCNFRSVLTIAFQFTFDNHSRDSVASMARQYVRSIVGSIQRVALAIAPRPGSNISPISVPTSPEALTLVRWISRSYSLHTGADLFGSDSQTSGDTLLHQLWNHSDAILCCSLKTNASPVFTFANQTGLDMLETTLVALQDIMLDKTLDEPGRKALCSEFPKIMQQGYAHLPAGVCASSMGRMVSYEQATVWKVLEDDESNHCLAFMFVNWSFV
As to the kind of experiment: affinity purification with mass spectrometry.

B1: PHAVOLUTA/ATHB9 (PHV) (protein, UniProt O04292 1-841)
chain: MMAHHSMDDRDSPDKGFDSGKYVRYTPEQVEALERVYAECPKPSSLRRQQLIRECPILCNIEPRQIKVWFQNRRCREKQRKESARLQTVNRKLSAMNKLLMEENDRLQKQVSNLVYENGFMKHRIHTASGTTTDNSCESVVVSGQQRQQQNPTHQHPQRDVNNPANLLSIAEETLAEFLCKATGTAVDWVQMIGMKPGPDSIGIVAVSRNCSGIAARACGLVSLEPMKVAEILKDRPSWFRDCRCVETLNVIPTGNGGTIELVNTQIYAPTTLAAARDFWTLRYSTSLEDGSYVVCERSLTSATGGPNGPLSSSFVRAKMLSSGFLIRPCDGGGSIIHIVDHVDLDVSSVPEVLRPLYESSKILAQKMTVAALRHVRQIAQETSGEVQYSGGRQPAVLRTFSQRLCRGFNDAVNGFVDDGWSPMSSDGGEDITIMINSSSAKFAGSQYGSSFLPSFGSGVLCAKASMLLQNVPPLVLIRFLREHRAEWADYGVDAYSAASLRATPYAVPCVRTGGFPSNQVILPLAQTLEHEEFLEVVRLGGHAYSPEDMGLSRDMYLLQLCSGVDENVVGGCAQLVFAPIDESFADDAPLLPSGFRVIPLDQKTNPNDHQSASRTRDLASSLDGSTKTDSETNSRLVLTIAFQFTFDNHSRDNVATMARQYVRNVVGSIQRVALAITPRPGSMQLPTSPEALTLVRWITRSYSIHTGADLFGADSQSCGGDTLLKQLWDHSDAILCCSLKTNASPVFTFANQAGLDMLETTLVALQDIMLDKTLDDSGRRALCSEFAKIMQQGYANLPAGICVSSMGRPVSYEQATVWKVVDDNESNHCLAFTLVSWSFV
On to B1, for which the binding result in assay [1] and in assay [2] was “binds” throughout.

B2: ATHB8 (protein, UniProt Q39123 1-833)
chain: MGGGSNNSHNMDNGKYVRYTPEQVEALERLYNDCPKPSSMRRQQLIRECPILSNIEPKQIKVWFQNRRCREKQRKEASRLQAVNRKLTAMNKLLMEENDRLQKQVSHLVYENSYFRQHPQNQGNLATTDTSCESVVTSGQHHLTPQHQPRDASPAGLLSIADETLTEFISKATGTAVEWVQMPGMKPGPDSIGIVAISHGCTGIAARACGLVGLDPTRVAEILKDKPCWLRDCRSLDIVNVLSTANGGTLELIYMQLYAPTTLAPARDFWMLRYTSVMEDGSLVICERSLNNTQNGPSMPPSPHFVRAEILPSGYLIRPCEGGGSILHIVDHFDLEPWSVPEVLRSLYESSTLLAQRTTMAALRYLRQISQEISQPNVTGWGRRPAALRALSQRLSKGFNEAVNGFSDEGWSILESDGIDDVTLLVNSSPTKMMMTSSLPFANGYTSMPSAVLCAKASMLLQNVPPSILLRFLREHRQEWADNSIDAYSAAAIKAGPCSLPIPRPGSFGGQVILPLAHTIENEEFMEVIKLESLGHYQEDMMMPADIFLLQMCSGVDENAVESCAELIFAPIDASFSDDAPIIPSGFRIIPLDSKSEGLSPNRTLDLASALDVGSRTAGDSCGSRGNSKSVMTIAFQLAFEMHMQENVASMARQYVRSVIASVQRVALALSPSSHQLSGLRPPPASPEAHTLARWISHSYRCYLGVDLLKPHGTDLLKSLWHHPDAVMCCSLKALSPVFTFANQAGLDMLETTLVALQDITLDKIFDNNNGKKTLSSEFPQIMQQGFMCMDGGICMSSMGRAVTYEKAVGWKVLNDDEDPHCICFMFLNWSFI
Regarding B2, the binding result in assay [1] and in assay [2] was “binds” throughout.
